# Data from the supplement of paper PMC8256030.
# Values joined by “and” are separate entries in the source; they are usually repeats but may differ in a detail not shown here. Equal entries are not always repeated. Structures can show the parent of a compound that is named as a salt. Some of the results follow. This data set is noisy: repeats of one test often differ as much as different tests do.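 HEK293T cells were given each compound shortly before transfection with a reporter in which red mCherry is followed by the SARS-CoV-2 frameshift element and then GFP in the −1 frame, so GFP appears only after frameshifting.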
# Columns and labels:
# HEK293T = test: percent viability (nuclei count) relative to control; higher = more viable cells; conditions: 10 µM; 24 h
# [1] = system: SARS-CoV-2 -1 PRF reporter mCherry-FSE-GFP(-1); test: mCherry (red) intensity as percent of control; higher = higher upstream reporter expression; conditions: 10 µM; 24 h; HEK293T
# [2] = system: SARS-CoV-2 -1 PRF reporter mCherry-FSE-GFP(-1); test: percent effect, decrease of GFP/mCherry ratio (-1 PRF reporter) relative to controls; higher = stronger frameshift inhibition; conditions: 10 µM; 24 h; HEK293T
Structure (SMILES),percent viability (HEK293T),mCherry [1],percent effect [2]
C[C@H]1CC(=O)C[C@@H]2CC[C@H]3[C@@H]4CC[C@H](O)[C@@]4(C)CC[C@@H]3[C@]21C [mesterolone],154%,102%,-0.109%
NCC(O)c1ccc(O)cc1 (centres undefined),338%,105%,-0.416%
CNCC(O)c1ccc(O)cc1 (centres undefined),293%,93%,-0.477%
CCNC(C)Cc1cccc(C(F)(F)F)c1 (centres undefined) [fenfluramine],236%,104%,2.58%
CCC1(C)CC(=O)NC(=O)C1 [bemegride],202%,99.2%,-4.46%
CN1[C@@H]2CC[C@H]1C[C@@H](OC(=O)c1cc(Cl)cc(Cl)c1)C2 [bemesetron],102%,110%,1.77%
CCC(=O)O[C@](Cc1ccccc1)(c1ccccc1)[C@H](C)CN(C)C [dextropropoxyphene],333%,95.5%,-1.04%
c1ccc2c(c1)OCC(C1=NCCN1)O2 (centres undefined) [Idazoxan·HCl],235%,80.3%,-3.45%
CCN[C@H](C)Cc1cccc(C(F)(F)F)c1 [levofenfluramine],319%,65.7%,0.371%
CCC1(c2ccccc2)CCC(=O)NC1=O (centres undefined) [glutethimide],271%,101%,0.536%
COP(=O)(OC)OC=C(Cl)Cl [dichlorvos],64.5%,96.3%,-4.75%
N[C@@H](Cc1ccc(N(CCCl)CCCl)cc1)C(=O)O,302%,141%,1.21%
C[C@]12CCC(=O)C[C@@H]1CC[C@@H]1[C@@H]2CC[C@]2(C)[C@@H](O)CC[C@@H]12 [androstanolone],149%,80.4%,-3.86%
[N-]=[N+]=CC(=O)OC[C@H](N)C(=O)O,241%,88.6%,2.16%
CC[C@@H](C(N)=O)N1CCCC1=O [levetiracetam],277%,111%,-1.38%
COc1ccc2c3c1O[C@H]1[C@@H](OC(C)=O)C=C[C@H]4[C@@H](C2)N(C)CC[C@@]341,327%,97.7%,-1.8%
CCCCNC(=O)OCC(C)(CCC)COC(N)=O (centres undefined) [tybamate],137%,93.4%,-5.14%
O=C(O)C(=O)c1cn(Cc2ccccc2)c2ccc(-c3ccc(OC(F)(F)F)cc3)cc12 [tiplasinin],120%,84.7%,-5.35%
CCC1(CC)C(=O)NC(=O)NC1=O [barbital sodium],147%,103%,-0.759%
CC[C@@H](CO)NC(=O)[C@@H]1C=C2c3cccc4c3c(cn4C)C[C@H]2N(C)C1 [methysergide],178%,86.8%,-2.81%
O=C1Nc2ccc(Cl)cc2C(c2ccccc2)=NC1O (centres undefined) [oxazepam],129%,65.1%,-3.7%
CC(C)[N+](C)(CCC(C(N)=O)(c1ccccc1)c1ccccc1)C(C)C [isopropamide iodide],154%,109%,-8.69%
COc1ccc(Cc2nccc3cc(OC)c(OC)cc23)cc1OC,129%,94.6%,-9.11%

Structure (SMILES),percent viability (HEK293T),mCherry [1],percent effect [2]
C[C@H](N)[C@H](O)c1ccc(O)c(O)c1,163%,117%,-6.9%
O=C(CC1NCCCC1O)Cn1cnc2cc(Br)c(Cl)cc2c1=O (centres undefined) [Halofuginone],34%,763%,-25.4%
COP(=S)(OC)Oc1cc(Cl)c(Cl)cc1Cl [fenclofos],153%,101%,-2.86%
Cc1cc(N(C)C)ccc1[P+](=O)O [Toldimfos],237%,84.3%,-1.96%
CC(C)(C)OC(=O)c1ncn2c1[C@@H]1CCCN1C(=O)c1c(Br)cccc1-2 [bretazenil],169%,104%,-0.693%
CN1C2CC(OC(=O)C(CO)c3ccccc3)CC1C(O)C2 (centres undefined),261%,103%,3.38%
CC(=O)OC(c1ccccc1)C1CCCCN1 (centres undefined) [levofacetoperane],99.9%,61.6%,-0.218%
CN1[C@@H]2CC[C@H]1C[C@@H](OC(=O)[C@H](CO)c1ccccc1)C2 [Levsin],72.2%,130%,3.76%
C[C@]12O[C@H](C[C@]1(O)CO)n1c3ccccc3c3c4c(c5c6ccccc6n2c5c31)CNC4=O [lestaurtinib],35.2%,685%,-11.7%
CCN1C[C@]2(COC)[C@H](O)C[C@H](OC)[C@]34C1[C@H]([C@H](OC)[C@H]23)[C@]1(OC(C)=O)[C@H]2[C@@H](OC(=O)c3ccccc3)[C@](O)(C[C@H]24)[C@@H](OC)[C@@H]1O,162%,125%,-9.57%
CCNC1(c2cccs2)CCCCC1=O (centres undefined),44.3%,115%,-0.55%
CN1C[C@H](C(=O)N[C@]2(C)O[C@@]3(O)[C@@H]4CCCN4C(=O)[C@H](Cc4ccccc4)N3C2=O)C=C2c3cccc4[nH]cc(c34)C[C@H]21 [Ergotamine],202% and 292%,81.3% and 84.5%,-5.07% and -2.85%
C[N+]12CCC(CC1)C(OC(=O)C(O)(c1ccccc1)c1ccccc1)C2 (centres undefined) [clidinium bromide],120%,103%,1.65%
CCc1ccc(C2CCNCC2)cc1 [enefexine],175%,91.5%,-8.54%
Cc1c(N)nc(C(CC(N)=O)NCC(N)C(N)=O)nc1C(=O)NC(C(=O)NC(C)C(O)C(C)C(=O)NC(C(=O)NCCc1nc(-c2nc(C(=O)NCCC[S+](C)C)cs2)cs1)C(C)O)C(O[C@@H]1O[C@@H](CO)[C@@H](O)[C@H](O)[C@@H]1O[C@H]1O[C@H](CO)[C@@H](O)[C@H](OC(N)=O)[C@@H]1O)c1cnc[nH]1 (some centres undefined),153%,239%,6.77%
CC(=O)NC1CCSC1=O (centres undefined) [citiolone],294%,94.1%,-0.524%
C=CCC1(CC=C)C(=O)NC(=O)NC1=O [allobarbital],317%,97.4%,-5.48%
NC(=O)C[S@@+]([O-])C(c1ccccc1)c1ccccc1 [armodafinil],300%,106%,-1.75%
C[C@]12CC[C@H](O)CC1=CC[C@@H]1[C@@H]2CC[C@]2(C)C(=O)CC[C@@H]12,319%,104%,-1.1%
O=C1CCO1 [propiolactone],162%,118%,-8.84%
Cc1ccc2c(c1)C1CN(C)CCC1N2 (centres undefined) [dicarbine],261%,128%,1.02%
C=CCC1(c2ccccc2)C(=O)NC(=O)NC1=O,281%,87.3%,-3.3%
O=[N+]([O-])O[C@H]1CO[C@H]2[C@@H]1OC[C@H]2O[N+](=O)[O-] [isosorbide dinitrate],110%,110%,-3.53%

Structure (SMILES),percent viability (HEK293T),mCherry [1],percent effect [2]
C[N+]1(C)[C@@H]2CC[C@H]1C[C@@H](OC(=O)C(CO)c1ccccc1)C2 (some centres undefined) [atropine methonitrate],199%,96.6%,-5.98%
c1ccc(C2(c3ccccc3)OC[C@@H]([C@H]3CCCCN3)O2)cc1 [levoxadrol],247%,105%,-1.06%
CO[C@]12C[C@@H](COC(=O)c3cncc(Br)c3)CN(C)[C@@H]1Cc1cn(C)c3cccc2c13 [nicergoline],244% and 253%,103% and 101%,1.3% and 2.5%
C[C@]12CCC(=O)C(O)=C1CC[C@@H]1[C@@H]2CC[C@@]2(C)[C@H]1CC[C@]2(C)O [oxymesterone],299%,95.9%,-4.69%
[N-]=[N+]=CC(=O)OC[C@H](N)C(=O)O [azaserine],184%,99.1%,-0.181%
C[C@]12CCC(=O)C(O)=C1CC[C@@H]1[C@@H]2CC[C@]2(C)C(=O)CC[C@@H]12 [formestane],172%,85.2%,-5.26%
COc1cc2c(cc1OC)[C@@]13CCN4CC5=CCO[C@H]6CC(=O)N2[C@H]1[C@H]6[C@H]5C[C@H]43,216%,100%,-7.32%
CN1C(=O)CN=C(c2ccccc2)c2cc(Cl)ccc21 [diazepam],29.2%,94.8%,-14.9%
C[C@]12CC[C@H]3[C@@H](CCC4=CC(=O)CC[C@@]43C)[C@@H]1CC[C@@H]2O [testosterone],155% and 285%,92% and 98.9%,0.578% and -5.38%
Cc1nnc2n1-c1ccc(Cl)cc1C(c1ccccc1)=NC2 [alprazolam],31.1%,84.8%,-9.92%
CC(CCc1ccccc1)NC(C)C(O)c1ccc(O)cc1 (centres undefined) [buphenine],259% and 190%,95.1% and 80.4%,-4.4% and 0.55%
CCOC(=O)C1(c2ccccc2)CCNCC1,283%,92.6%,-0.144%
C=CC[C@]1(O)CC[C@H]2[C@@H]3CCC4=CC(=O)CCC4=C3C=C[C@@]21C,263%,130%,1.31%
NCc1cccnc1 [picolamine],153%,90.4%,2.17%
CC(=O)[C@H]1CC[C@H]2[C@@H]3CC[C@@H]4C[C@H](O)CC[C@]4(C)[C@H]3CC[C@]12C,168%,128%,3.83%
N#Cc1nn(-c2c(Cl)cc(C(F)(F)F)cc2Cl)c(N)c1[S+]([O-])C(F)(F)F (centres undefined),175%,103%,-1.4%
O=C1CN=C(c2ccccn2)c2cc(Br)ccc2N1 [bromazepam],314%,83%,-1.8%
CC(C)=CCN1CC[C@@]2(C)c3cc(O)ccc3C[C@@H]1[C@@H]2C [Fortral],322%,99.1%,0.499%
C[C@@H]1O[C@@H](O[C@H]2C[C@@H](O)[C@]3(CO)[C@H]4[C@H](O)C[C@]5(C)[C@@H](C6=CC(=O)OC6)CC[C@]5(O)[C@@H]4CC[C@]3(O)C2)[C@H](O)[C@H](O)[C@H]1O,2.97%,14.9%,-14%
CCC(COC(=O)c1cc(OC)c(OC)c(OC)c1)(c1ccccc1)N(C)C (centres undefined),131%,95.2%,-4.43%
CN(C)[C@@H]1C(=O)C(C(N)=O)=C(O)[C@@]2(O)C(=O)C3=C(O)c4c(O)ccc(Cl)c4[C@@](C)(O)[C@H]3C[C@@H]12,117%,117%,-0.724%
O=C1C[C@@H]2OCC=C3CN4CC[C@]56c7ccccc7N1[C@H]5[C@H]2[C@H]3C[C@H]46 [Strychnine·HCl],274%,94.9%,2.93%

# Rewritten with bars between the fields: part of the list above
Structure (SMILES) | percent viability (HEK293T) | mCherry [1] | percent effect [2]
N#Cc1nn(-c2c(Cl)cc(C(F)(F)F)cc2Cl)c(N)c1[S+]([O-])C(F)(F)F (centres undefined) | 175% | 103% | -1.4%
O=C1CN=C(c2ccccn2)c2cc(Br)ccc2N1 [bromazepam] | 314% | 83% | -1.8%
CC(C)=CCN1CC[C@@]2(C)c3cc(O)ccc3C[C@@H]1[C@@H]2C [Fortral] | 322% | 99.1% | 0.499%
